Assay results published in publication PMC7545097, “Mapping the native interaction surfaces of PREP1 with PBX1 by cross-linking mass-spectrometry and mutagenesis” (Scientific Reports, 2020).
No constants are given. Whether binding was seen depends on the method and setting. Binding seen in cells or lysates may run through a third protein. Some entries that bind do so weakly or less than the wild type. Where a sequence is shown, tags or fusion partners need not be part of it.

Target: T1, PBX1, endogenous in A549 cells (human (endogenous in A549)) (UniProt P40424)
T1 sequence: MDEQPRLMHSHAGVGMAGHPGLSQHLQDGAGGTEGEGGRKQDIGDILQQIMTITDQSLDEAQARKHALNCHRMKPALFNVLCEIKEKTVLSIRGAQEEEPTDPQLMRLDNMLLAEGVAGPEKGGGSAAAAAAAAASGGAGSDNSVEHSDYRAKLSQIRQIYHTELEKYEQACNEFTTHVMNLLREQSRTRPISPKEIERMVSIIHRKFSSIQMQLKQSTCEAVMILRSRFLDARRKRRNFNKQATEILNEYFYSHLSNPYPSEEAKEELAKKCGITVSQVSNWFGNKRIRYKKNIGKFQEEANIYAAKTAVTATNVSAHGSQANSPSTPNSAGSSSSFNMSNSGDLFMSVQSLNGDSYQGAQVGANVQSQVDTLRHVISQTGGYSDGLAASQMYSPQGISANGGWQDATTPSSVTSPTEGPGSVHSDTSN
Assay: proximity ligation; in situ PLA (Duolink) in fixed A549 cells expressing PREP1-GFP constructs; anti-PBX1 and anti-GFP antibodies; nuclear and cytoplasmic foci counted

binding: binds
B1: PREP1-GFP wild-type (protein, UniProt P55347 1-436)
chain: MMATQTLSIDSYQDGQQMQVVTELKTEQDPNCSEPDAEGVSPPPVESQTPMDVDKQAIYRHPLFPLLALLFEKCEQSTQGSEGTTSASFDVDIENFVRKQEKEGKPFFCEDPETDNLMVKAIQVLRIHLLELEKVNELCKDFCSRYIACLKTKMNSETLLSGEPGSPYSPVQSQQIQSAITGTISPQGIVVPASALQQGNVAMATVAGGTVYQPVTVVTPQGQVVTQTLSPGTIRIQNSQLQLQLNQDLSILHQDDGSSKNKRGVLPKHATNVMRSWLFQHIGHPYPTEDEKKQIAAQTNLTLLQVNNWFINARRRILQPMLDSSCSETPKTKKKTAQNRPVQRFWPDSIASGVAQPPPSELTMSEGAVVTITTPVNMNVDSLQSLSSDGATLAVQQVMMAGQSEDESVDSTEEDAGALAPAHISGLVLENSDSLQ
